# According to US10323007B1, “N2N N4-disubstituted quinazoline-2,4-diamines and uses thereof” (University of South Florida, priority 2016, dated 2019):
# Test system: human HepG2 cells
# Format: cell-based
# Conditions: for Al: Table 6, LD50(HepG2) relative to MIC (isolate 1646)
# Protocol: Cytotoxicity assays were performed using human HepG2 cells (human liver epithelial with hepatocellular carcinoma), as described by us previously.^17,24 Cells were cultured in Dulbecco's modified eagle medium (DMEM), supplemented with 10% fetal bovine serum and 1% penicillin-streptomycin for 3 days at 37° C. and 5% CO2. Cells were then diluted to 1×10^5 ml^−1 using fresh DMEM and added to 96 well tissue culture plates at a volume of 100 μL. Plates were incubated for 24 hours at 37° C. and 5% CO2, allowing the cells to adhere to the plastic. […] Plates were then incubated for 48 hours at 37° C. and 5% CO2. After 48 hours the DMEM was removed and 100 μL of new media was added containing MTT (3-(4, 5-dimethylthiazol-2-yl)-2, 5-diphenyltetrazolium bromide), followed by incubation for four hours at 37° C. and 5% CO2. […] Lead compounds were solvated in 100% DMSO for these studies, which served as the negative control. LD50 values were determined for each compound by comparison to vehicle only controls.
Structure (SMILES),Al,difference in specificity towards bacteria (LD50 human liver cells vs MIC) [fold]
"CNc1nc(NCc2ccccc2)nc2ccc(C3=CCCCC3)cc12 [Compound 29, N^2-Benzyl-6-(cyclohex-1-en-1-yl)-N^4-methylquinazoline-2,4-diamine]",12,
"CCCCCc1ccc2nc(NCc3ccccc3)nc(NC)c2c1 [Compound 27, N^2-Benzyl-N^4-methyl-6-pentylquinazoline-2,4-diamine]",12,
"CCC/C=C/c1ccc2nc(NCc3ccccc3)nc(NC)c2c1 [Compound 26, (E)-N^2-Benzyl-N^4-methyl-6-(pent-1-en-1-yl)quinazoline-2,4-diamine]",22,
"CNc1nc(NCc2ccccc2)nc2ccc(Br)cc12 [Compound 4, N^2-Benzyl-6-bromo-N^4-methylquinazoline-2,4-diamine]",46,46
"CNc1nc(NCc2ccccc2)nc2ccc(C3CCCCC3)cc12 [Compound 30, N^2-Benzyl-6-cyclohexyl-N^4-methylquinazoline-2,4-diamine]",6,
"CNc1nc(NCc2ccccc2)nc2ccc(C)cc12 [Compound 5, N^2-Benzyl-N^4,6-dimethylquinazoline-2,4-diamine]",22,22
